In patent publication US10577428B2, “Anti-factor XI monoclonal antibodies and methods of use thereof” (Oregon Health & Science University, priority 2007, dated 2020):

Tested on: baboons (Papio anubis)
Assay: Local and systemic TAT, βTG and D-dimer during thrombus formation (4 mm grafts)
Type: in vivo, baboon (Papio anubis)
Conditions: at 60 min
Method: A novel local sampling method was used to assess the local production of thrombogenic mediators by sampling blood that superfused propagating experimental thrombi. […] All blood samples were collected into 1/10th volume 3.8% citrate anticoagulant. Systemic samples (1 ml each) were collected before initiation of thrombosis as well as 30 and 60 min into each study. A total of 6 local blood samples were drawn from the peripheral blood IBL at a rate of 100 μl/min over 10 min intervals out of a 0.64 mm port which was located 10 mm distal to the growing thrombus (FIG. 1A). […] Infusion and sampling were regulated by syringe pumps (Harvard Apparatus). Local sampling was performed only with the 4 mm i.d. devices in this study.
Blood cell counts were determined using a micro-60 automated cell counter (Horiba-ABX Diagnostics). Blood samples were divided into two aliquots and processed according to specific test requirements. All samples were placed on ice for 10 min, centrifuged at 4° C. for 10 min at 12,900 g, and the plasmas were stored at −80° C. For β-thromboglobulin (βTG) determinations, the samples were supplemented with 4 μg/ml prostaglandin E1 (PGE1), 4.3 mg/ml acetylsalicylic acid (ASA), and 50 μg/ml PPACK. […]

B1: aXIMab: neutralizing murine IgG/kappa anti-human FXI monoclonal antibody from hybridoma 1A6; binds A3 domain; VH SEQ ID NO:3, VL SEQ ID NO:5 (antibody, listed as Mus musculus, V domains shown)
VH: QVTLKESGPGILKPSQTLSLTCSFSGFSLSTSGMGVGWIRQPSGKGLEWLAHIWWDDDKYYNPSLKSQLTISKDTSRNQVFLKITSVDAADTATYYCARKRSSVVAHYYAMDYWGQGTSVTVSS
VL: DIVLTQSPASLAVSLGQRATISCKASQSVDYDGDSYLNWYQQKPGQPPKLLIYAASNLESGIPARFSGSGSGTDFTLNIHPVEEEDAATYYCQQSNGDPWTFGGGTKLEIK
Q: B1 was tested. Which “Local D-dimer levels” value (n=6) did it give?
A: Its value is 2.2 ± 0.2 µg/mL.

Q: And the “Systemic D-dimer levels” value (control 2.4±0.3)?
A: Its value is 2.3 ± 0.2 µg/mL.
